The source of these data is patent US20070066800A1, “Apo2l(trail) receptor binding peptides and uses thereof” (priority 2003, published 2007).

Sequences of proteins named here, by UniProt entry; tags and fusion partners are left off. A line that says so, or that is headed by a name, gives the form on record, which may keep a tag or linker. Residues count along the entry.
UniProt P19438, 30-211 with tags or gaps: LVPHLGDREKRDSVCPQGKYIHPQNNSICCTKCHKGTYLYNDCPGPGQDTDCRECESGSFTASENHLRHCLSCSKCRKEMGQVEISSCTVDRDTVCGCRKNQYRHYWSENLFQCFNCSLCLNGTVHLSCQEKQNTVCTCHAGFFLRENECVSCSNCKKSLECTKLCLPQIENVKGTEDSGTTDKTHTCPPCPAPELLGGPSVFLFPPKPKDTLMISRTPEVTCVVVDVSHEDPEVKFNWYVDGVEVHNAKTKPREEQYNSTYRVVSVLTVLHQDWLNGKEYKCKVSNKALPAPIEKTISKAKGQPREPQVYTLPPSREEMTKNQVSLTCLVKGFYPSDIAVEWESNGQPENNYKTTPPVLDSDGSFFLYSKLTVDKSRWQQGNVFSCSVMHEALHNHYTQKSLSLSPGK
UniProt O00220, 24-239 with tags or gaps H141R/R209T: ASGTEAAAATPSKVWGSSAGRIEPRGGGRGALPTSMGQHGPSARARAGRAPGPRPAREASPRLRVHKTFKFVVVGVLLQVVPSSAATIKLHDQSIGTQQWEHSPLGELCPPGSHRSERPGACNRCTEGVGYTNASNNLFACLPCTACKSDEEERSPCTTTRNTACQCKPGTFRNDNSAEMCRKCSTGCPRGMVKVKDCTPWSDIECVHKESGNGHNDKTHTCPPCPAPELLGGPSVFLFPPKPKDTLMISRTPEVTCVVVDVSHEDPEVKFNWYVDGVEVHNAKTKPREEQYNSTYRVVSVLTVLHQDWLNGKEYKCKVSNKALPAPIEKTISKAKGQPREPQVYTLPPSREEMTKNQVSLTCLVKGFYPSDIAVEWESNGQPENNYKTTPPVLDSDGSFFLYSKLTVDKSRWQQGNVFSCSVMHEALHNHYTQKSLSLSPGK
UniProt Q9UBN6, 56-199 with tags or gaps: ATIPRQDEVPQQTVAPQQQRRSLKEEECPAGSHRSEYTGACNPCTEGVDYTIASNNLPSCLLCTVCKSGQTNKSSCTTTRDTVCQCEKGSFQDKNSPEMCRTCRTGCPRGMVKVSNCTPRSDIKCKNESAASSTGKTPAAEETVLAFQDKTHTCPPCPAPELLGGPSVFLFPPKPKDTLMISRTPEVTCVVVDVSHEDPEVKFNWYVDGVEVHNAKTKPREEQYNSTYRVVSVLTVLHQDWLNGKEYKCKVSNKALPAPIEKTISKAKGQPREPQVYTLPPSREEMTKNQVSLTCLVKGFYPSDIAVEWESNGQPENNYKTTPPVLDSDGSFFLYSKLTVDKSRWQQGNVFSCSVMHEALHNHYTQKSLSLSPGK
UniProt O14798, 26-161 with tags or gaps: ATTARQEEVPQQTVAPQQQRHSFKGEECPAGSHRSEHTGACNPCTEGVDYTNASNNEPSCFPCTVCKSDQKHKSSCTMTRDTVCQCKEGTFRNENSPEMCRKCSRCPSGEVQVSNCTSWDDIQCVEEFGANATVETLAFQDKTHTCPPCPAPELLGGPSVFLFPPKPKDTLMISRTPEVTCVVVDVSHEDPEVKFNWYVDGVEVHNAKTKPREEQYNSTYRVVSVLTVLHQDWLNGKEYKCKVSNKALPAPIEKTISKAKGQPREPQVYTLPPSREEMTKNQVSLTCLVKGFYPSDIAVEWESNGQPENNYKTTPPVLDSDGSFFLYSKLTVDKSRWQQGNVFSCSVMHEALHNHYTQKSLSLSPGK
UniProt O14763, 56-184 with tags or gaps: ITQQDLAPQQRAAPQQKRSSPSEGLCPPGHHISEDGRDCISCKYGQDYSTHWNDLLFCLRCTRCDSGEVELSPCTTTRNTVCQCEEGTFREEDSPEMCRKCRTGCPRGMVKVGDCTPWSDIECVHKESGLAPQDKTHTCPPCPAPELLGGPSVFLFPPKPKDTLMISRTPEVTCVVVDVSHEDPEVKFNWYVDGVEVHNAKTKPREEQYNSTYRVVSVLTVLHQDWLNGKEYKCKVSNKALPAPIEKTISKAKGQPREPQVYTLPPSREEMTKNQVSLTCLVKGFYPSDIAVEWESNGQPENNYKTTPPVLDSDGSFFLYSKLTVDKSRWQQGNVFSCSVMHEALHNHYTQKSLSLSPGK

The target of test [1] is Hu TNFR IgG (SEQ ID NO: 110) (Homo sapiens, UniProt P19438). Briefly: Ic50 cross-reactivity ELISA, Hu TNFR IgG. To be noted: read-out: Hu TNFR IgG (SEQ ID NO: 110) Ic50; Table IV cross-reactivity; phage clones. It is filed as binding. (ELISA stands for enzyme-linked immunosorbent assay.)
In test [2] the test system is Cyno DR4 IgG (SEQ ID NO: 111). As to the kind of experiment: Ic50 cross-reactivity ELISA, Cyno DR4 IgG. It counts as binding. The following applies: read-out: Cyno DR4 IgG (SEQ ID NO: 111) Ic50; Table IV cross-reactivity; phage clones.
Test [3] addresses Hu DR4 IgG (SEQ ID NO: 108) (Homo sapiens, UniProt O00220, H141R/R209T). Briefly: Ic50 cross-reactivity ELISA, Hu DR4 IgG. The following applies: read-out: Hu DR4 IgG (SEQ ID NO: 108) Ic50; Table IV cross-reactivity; phage clones. It counts as binding.
Test [4] deals with Cyno DR5 IgG (SEQ ID NO: 112). Briefly: Ic50 cross-reactivity ELISA, Cyno DR5 IgG. To be noted: read-out: Cyno DR5 IgG (SEQ ID NO: 112) Ic50; Table IV cross-reactivity; phage clones.
The target of test [5] is Hu DcR2 IgG (SEQ ID NO: 107) (Homo sapiens, UniProt Q9UBN6). As to the kind of experiment: Ic50 cross-reactivity ELISA, Hu DcR2 IgG. It counts as binding. The following applies: read-out: Hu DcR2 IgG (SEQ ID NO: 107) Ic50; Table IV cross-reactivity; phage clones.
Test [6] deals with Hu DcR1 IgG (SEQ ID NO: 106) (Homo sapiens, UniProt O14798). As to the kind of experiment: Ic50 cross-reactivity ELISA, Hu DcR1 IgG. To be noted: read-out: Hu DcR1 IgG (SEQ ID NO: 106) Ic50; Table IV cross-reactivity; phage clones. It is filed as binding.
Test [7] deals with Hu DR5 IgG (SEQ ID NO: 109) (Homo sapiens, UniProt O14763). Briefly: Ic50 cross-reactivity ELISA, Hu DR5 IgG. It counts as binding. To be noted: read-out: Hu DR5 IgG (SEQ ID NO: 109) Ic50; Table IV cross-reactivity; phage clones.

The structures given here were assigned with low confidence; some may be wrong.

As usually defined, the IC50 is the concentration needed to halve the response being measured. In the case of `CC(C)C[C@H](NC(=O)[C@H](CCCCN)NC(=O)[C@H](CO)NC(=O)[C@H](CS)NC(=O)[C@H](CCC(=O)O)NC(=O)[C@@H](NC(=O)[C@H](CC(C)C)NC(=O)[C@H](CS)NC(=O)[C@@H](NC(=O)[C@H](CCCNC(=N)N)NC(=O)CN)C(C)C)[C@@H](C)O)C(=O)N[C@H](C(=O)O)[C@@H](C)O`, the IC50 in test [1], in test [2], in test [3], in test [4], in test [5] and in test [6] was greater than 5 µM each time.

Consider `CC(C)C[C@H](NC(=O)[C@H](CCCNC(=N)N)NC(=O)[C@H](CO)NC(=O)[C@H](CS)NC(=O)[C@H](CCC(=O)O)NC(=O)[C@@H](NC(=O)[C@H](CC(C)C)NC(=O)[C@H](CS)NC(=O)[C@@H](NC(=O)[C@H](CCCNC(=N)N)NC(=O)CN)C(C)C)[C@@H](C)O)C(=O)N[C@@H](CCCNC(=N)N)C(=O)O`, for which the IC50 in test [1] was greater than 5 µM; in test [3] it was greater than 5 µM; in test [4], greater than 5 µM; in test [6] it was 2 µM.

For `CC(C)C[C@H](NC(=O)[C@H](CCCCN)NC(=O)[C@H](CO)NC(=O)[C@H](CS)NC(=O)[C@H](CC(C)C)NC(=O)[C@@H](NC(=O)[C@H](CC(C)C)NC(=O)[C@H](CS)NC(=O)[C@@H](NC(=O)[C@H](CCCNC(=N)N)NC(=O)CN)C(C)C)[C@@H](C)O)C(=O)N[C@@H](CCCNC(=N)N)C(=O)O`, the IC50 in test [1], in test [2], in test [3], in test [4], in test [5] and in test [6] was greater than 5 µM throughout.

With `CC(C)C[C@H](NC(=O)[C@H](CCCNC(=N)N)NC(=O)[C@H](CO)NC(=O)[C@H](CS)NC(=O)[C@H](CCC(=O)O)NC(=O)[C@@H](NC(=O)[C@H](CC(C)C)NC(=O)[C@H](CS)NC(=O)[C@@H](NC(=O)[C@H](CCCNC(=N)N)NC(=O)CN)C(C)C)[C@@H](C)O)C(=O)N[C@H](C(=O)O)[C@@H](C)O`, the 50% inhibitory concentration (IC50) in test [1] is greater than 5 µM; in test [3] it was 5 µM; in test [4], greater than 5 µM; in test [5], 1 µM; in test [6] it was greater than 5 µM.

Regarding `CC(C)C[C@H](NC(=O)[C@H](CCCCN)NC(=O)[C@H](CO)NC(=O)[C@H](CS)NC(=O)[C@H](CC(C)C)NC(=O)[C@@H](NC(=O)[C@H](CC(C)C)NC(=O)[C@H](CS)NC(=O)[C@@H](NC(=O)[C@H](CCCNC(=N)N)NC(=O)CN)C(C)C)[C@@H](C)O)C(=O)N[C@H](C(=O)O)[C@@H](C)O`, the IC50 in test [2] was greater than 5 µM; in test [4], 1.1 µM; in test [5], greater than 5 µM; in test [6] it was greater than 5 µM.

Consider `CC(C)C[C@H](NC(=O)[C@H](CCCCN)NC(=O)[C@H](CO)NC(=O)[C@H](CS)NC(=O)[C@H](CCC(=O)O)NC(=O)[C@@H](NC(=O)[C@H](CC(C)C)NC(=O)[C@H](CS)NC(=O)[C@@H](NC(=O)[C@H](CCCNC(=N)N)NC(=O)CN)C(C)C)[C@@H](C)O)C(=O)N[C@@H](CCCNC(=N)N)C(=O)O`, for which the IC50 was greater than 5 µM in test [1]; greater than 5 µM in test [2]; greater than 5 µM in test [3]; greater than 5 µM in test [4]; 0.003 µM in test [7]; greater than 5 µM in test [5].

Take `CC(C)C[C@H](NC(=O)[C@H](CCCNC(=N)N)NC(=O)[C@H](CO)NC(=O)[C@H](CS)NC(=O)[C@H](CC(C)C)NC(=O)[C@@H](NC(=O)[C@H](CC(C)C)NC(=O)[C@H](CS)NC(=O)[C@@H](NC(=O)[C@H](CCCNC(=N)N)NC(=O)CN)C(C)C)[C@@H](C)O)C(=O)N[C@H](C(=O)O)[C@@H](C)O`: the IC50 in test [1] is greater than 5 µM; in test [2], greater than 5 µM; in test [3], greater than 5 µM; in test [4], 4.1 µM.
